Source: PubChem BioAssay AID1053208 (Peter MacCallum Cancer Centre, 2014)
Shown is a random part of about 17,000 reagents. Over the whole deposit, 788 (4.7%) got an active call. 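Calls rest on z-score classes alone; an extra cut-off of viability at most 70% of control was not applied to them.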 Unmarked entries are inactive. Further read-outs or replicates are left out here.

Test: 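Synthetic lethal interactions between gene loss and doxorubicin in osteosarcoma cells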 (primary screen)
Cell system: mouse osteosarcoma cells, early-passage culture from an engineered mouse model of fibroblastic bone tumour
Reagents: siRNA pool against mouse genes, 40 nM
Duration: about 120 h (48 h before drug, then 72 h with drug)
Challenge: doxorubicin 100 nM for 72 h, roughly 30-40% inhibitory dose
Read-out: 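Viability read as ATP luminescence after 72 h of 100 nM doxorubicin or none, duplicate wells averaged, scaled to non-targeting siRNA, then expressed as robust z-scores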
Scale: viability z-score with doxorubicin: higher = more viable cells under doxorubicin; viability z-score without drug: higher = more viable cells with knock-down alone
Call rule: 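Called active if knock-down leaves viability unchanged without drug (z within -2 to 2) but lowers it with doxorubicin (z at or under -2)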

What did the screen give for 4632433K11Rik?
combined z-score class: no change with or without drug; viability z-score with doxorubicin: 1.46; viability z-score without drug: 0.84

What is on record for Arl2bp?
combined z-score class: no change with or without drug; viability z-score with doxorubicin: 1.8; viability z-score without drug: 0.34

For Cd70, what does the deposit list?
combined z-score class: no change with or without drug; viability z-score with doxorubicin: -0.67; viability z-score without drug: 1.18

What is on record for Stxbp1?
combined z-score class: no change with or without drug; viability z-score with doxorubicin: -0.45; viability z-score without drug: -0.67

For Hey1, what was measured?
combined z-score class: no change with or without drug; viability z-score with doxorubicin: 0.34; viability z-score without drug: 0.67

For Ndst3, what does the deposit list?
combined z-score class: low cell count without drug only; viability z-score with doxorubicin: -1.12; viability z-score without drug: -2.19

With Cct5, how do the results read?
combined z-score class: low cell count without drug only; viability z-score with doxorubicin: -1.8; viability z-score without drug: -2.53

For Qtgal, what does the deposit list?
combined z-score class: high cell count with doxorubicin only; viability z-score with doxorubicin: 2.02; viability z-score without drug: 0.51

Which result is listed for Mrpl3?
combined z-score class: no change with or without drug; viability z-score with doxorubicin: 0.45; viability z-score without drug: 0.67

With Bptf, what was measured?
combined z-score class: no change with or without drug; viability z-score with doxorubicin: 0.56; viability z-score without drug: 1.01

Which result is listed for Prox2?
combined z-score class: no change with or without drug; viability z-score with doxorubicin: -0.45; viability z-score without drug: 0.51

What did the screen give for Pgap6?
combined z-score class: high cell count without drug only; viability z-score with doxorubicin: 1.57; viability z-score without drug: 2.36

An excerpt from above, showing only “viability z-score without drug”.
Qtgal: 0.51
Mrpl3: 0.67
